T1: Spindly^250–605 (human) (UniProt Q96EA4)
T1 sequence: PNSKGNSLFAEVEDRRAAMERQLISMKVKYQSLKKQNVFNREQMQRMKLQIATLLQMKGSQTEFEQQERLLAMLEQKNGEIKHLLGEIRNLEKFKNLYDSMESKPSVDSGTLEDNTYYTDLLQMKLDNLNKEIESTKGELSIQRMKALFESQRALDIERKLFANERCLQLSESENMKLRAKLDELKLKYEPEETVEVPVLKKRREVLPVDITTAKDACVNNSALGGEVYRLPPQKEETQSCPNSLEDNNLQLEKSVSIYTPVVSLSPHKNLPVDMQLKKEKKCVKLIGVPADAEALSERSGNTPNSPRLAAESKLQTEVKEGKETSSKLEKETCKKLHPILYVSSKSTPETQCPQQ

T2: Spindly^250–275_307–605 (human) (UniProt Q96EA4)
T2 sequence: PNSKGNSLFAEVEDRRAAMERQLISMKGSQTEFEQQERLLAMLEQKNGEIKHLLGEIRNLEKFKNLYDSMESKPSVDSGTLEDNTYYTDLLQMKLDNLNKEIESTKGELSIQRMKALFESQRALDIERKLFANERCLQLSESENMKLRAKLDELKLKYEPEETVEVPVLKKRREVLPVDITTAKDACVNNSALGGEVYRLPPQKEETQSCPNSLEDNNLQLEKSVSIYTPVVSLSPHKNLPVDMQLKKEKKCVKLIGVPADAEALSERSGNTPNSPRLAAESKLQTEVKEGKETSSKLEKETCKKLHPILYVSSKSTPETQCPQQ

B1: Spindly^51–250 (domain or fragment, UniProt Q96EA4 51-250)
chain: MTESYEQEKYTLQREVELKSRMLESLSCECEAIKQQQKMHLEKLEEQLSRSHGQEVNELKTKIEKLKVELDEARLSEKQLKHQVDHQKELLSCKSEELRVMSERVQESMSSEMLALQIELTEMESMKTTLKEEVNELQYRQEQLELLITNLMRQVDRLKEEKEEREKEAVSYYNALEKARVANQDLQVQLDQALQQALDP
B2: Spindly^1–250 (domain or fragment, UniProt Q96EA4 1-250)
chain: MEADIITNLRCRLKEAEEERLKAAQYGLQLVESQNELQNQLDKCRNEMMTMTESYEQEKYTLQREVELKSRMLESLSCECEAIKQQQKMHLEKLEEQLSRSHGQEVNELKTKIEKLKVELDEARLSEKQLKHQVDHQKELLSCKSEELRVMSERVQESMSSEMLALQIELTEMESMKTTLKEEVNELQYRQEQLELLITNLMRQVDRLKEEKEEREKEAVSYYNALEKARVANQDLQVQLDQALQQALDP
B3: ^mChSpindly^∆26–28 (protein, UniProt Q96EA4 1-605)
chain: MEADIITNLRCRLKEAEEERLKAAQQLVESQNELQNQLDKCRNEMMTMTESYEQEKYTLQREVELKSRMLESLSCECEAIKQQQKMHLEKLEEQLSRSHGQEVNELKTKIEKLKVELDEARLSEKQLKHQVDHQKELLSCKSEELRVMSERVQESMSSEMLALQIELTEMESMKTTLKEEVNELQYRQEQLELLITNLMRQVDRLKEEKEEREKEAVSYYNALEKARVANQDLQVQLDQALQQALDPNSKGNSLFAEVEDRRAAMERQLISMKVKYQSLKKQNVFNREQMQRMKLQIATLLQMKGSQTEFEQQERLLAMLEQKNGEIKHLLGEIRNLEKFKNLYDSMESKPSVDSGTLEDNTYYTDLLQMKLDNLNKEIESTKGELSIQRMKALFESQRALDIERKLFANERCLQLSESENMKLRAKLDELKLKYEPEETVEVPVLKKRREVLPVDITTAKDACVNNSALGGEVYRLPPQKEETQSCPNSLEDNNLQLEKSVSIYTPVVSLSPHKNLPVDMQLKKEKKCVKLIGVPADAEALSERSGNTPNSPRLAAESKLQTEVKEGKETSSKLEKETCKKLHPILYVSSKSTPETQCPQQ
B4: Spindly^1–440 (domain or fragment, UniProt Q96EA4 1-440)
chain: MEADIITNLRCRLKEAEEERLKAAQYGLQLVESQNELQNQLDKCRNEMMTMTESYEQEKYTLQREVELKSRMLESLSCECEAIKQQQKMHLEKLEEQLSRSHGQEVNELKTKIEKLKVELDEARLSEKQLKHQVDHQKELLSCKSEELRVMSERVQESMSSEMLALQIELTEMESMKTTLKEEVNELQYRQEQLELLITNLMRQVDRLKEEKEEREKEAVSYYNALEKARVANQDLQVQLDQALQQALDPNSKGNSLFAEVEDRRAAMERQLISMKVKYQSLKKQNVFNREQMQRMKLQIATLLQMKGSQTEFEQQERLLAMLEQKNGEIKHLLGEIRNLEKFKNLYDSMESKPSVDSGTLEDNTYYTDLLQMKLDNLNKEIESTKGELSIQRMKALFESQRALDIERKLFANERCLQLSESENMKLRAKLDELKLKYEP
B5: Spindly^1–354 (domain or fragment, UniProt Q96EA4 1-354)
chain: MEADIITNLRCRLKEAEEERLKAAQYGLQLVESQNELQNQLDKCRNEMMTMTESYEQEKYTLQREVELKSRMLESLSCECEAIKQQQKMHLEKLEEQLSRSHGQEVNELKTKIEKLKVELDEARLSEKQLKHQVDHQKELLSCKSEELRVMSERVQESMSSEMLALQIELTEMESMKTTLKEEVNELQYRQEQLELLITNLMRQVDRLKEEKEEREKEAVSYYNALEKARVANQDLQVQLDQALQQALDPNSKGNSLFAEVEDRRAAMERQLISMKVKYQSLKKQNVFNREQMQRMKLQIATLLQMKGSQTEFEQQERLLAMLEQKNGEIKHLLGEIRNLEKFKNLYDSMESKP
B6: GST-Spindly^CC2* (protein, UniProt Q96EA4 1-605)
chain: MEADIITNLRCRLKEAEEERLKAAQYGLQLVESQNELQNQLDKCRNEMMTMTESYEQEKYTLQREVELKSRMLESLSCECEAIKQQQKMHLEKLEEQLSRSHGQEVNELKTKIEKLKVELDEARLSEKQLKHQVDHQKELLSCKSEELRVMSERVQESMSSEMLALQIELTEMESMKTTLKEEVNELQYRQEQLELLITNLMRQVDRLKEEKEEREKEAVSYYNALEKARVANQDLQVQLDQALQQALDPNSKGNSLFAEVEDRRAAMERQLISMKVKYQSLKKQNVFNREQMQEMELQIATLLQMKGSQTEFEQQERLLAMLEQKNGEIKHLLGEIRNLEKFKNLYDSMESKPSVDSGTLEDNTYYTDLLQMKLDNLNKEIESTKGELSIQRMKALFESQRALDIERKLFANERCLQLSESENMKLRAKLDELKLKYEPEETVEVPVLKKRREVLPVDITTAKDACVNNSALGGEVYRLPPQKEETQSCPNSLEDNNLQLEKSVSIYTPVVSLSPHKNLPVDMQLKKEKKCVKLIGVPADAEALSERSGNTPNSPRLAAESKLQTEVKEGKETSSKLEKETCKKLHPILYVSSKSTPETQCPQQ
B7: GST-Spindly^FL (protein, UniProt Q96EA4 1-605)
chain: B6 chain with E295R, E297K
B8: mCherry-tagged full-length Spindly (^mChSpindly^FL) (protein, UniProt Q96EA4 1-605)
chain: B6 chain with E295R, E297K
B9: ^mChSpindly^SM*^-CC2* (F258A, R295E-K297E) (protein, UniProt Q96EA4 1-605)
chain: B6 chain with F258A
B10: ^mChSpindly^22–605 (domain or fragment, UniProt Q96EA4 22-605)
chain: KAAQYGLQLVESQNELQNQLDKCRNEMMTMTESYEQEKYTLQREVELKSRMLESLSCECEAIKQQQKMHLEKLEEQLSRSHGQEVNELKTKIEKLKVELDEARLSEKQLKHQVDHQKELLSCKSEELRVMSERVQESMSSEMLALQIELTEMESMKTTLKEEVNELQYRQEQLELLITNLMRQVDRLKEEKEEREKEAVSYYNALEKARVANQDLQVQLDQALQQALDPNSKGNSLFAEVEDRRAAMERQLISMKVKYQSLKKQNVFNREQMQRMKLQIATLLQMKGSQTEFEQQERLLAMLEQKNGEIKHLLGEIRNLEKFKNLYDSMESKPSVDSGTLEDNTYYTDLLQMKLDNLNKEIESTKGELSIQRMKALFESQRALDIERKLFANERCLQLSESENMKLRAKLDELKLKYEPEETVEVPVLKKRREVLPVDITTAKDACVNNSALGGEVYRLPPQKEETQSCPNSLEDNNLQLEKSVSIYTPVVSLSPHKNLPVDMQLKKEKKCVKLIGVPADAEALSERSGNTPNSPRLAAESKLQTEVKEGKETSSKLEKETCKKLHPILYVSSKSTPETQCPQQ

Positions count from the first letter of the chain named. Names may count otherwise. No constants are given. Whether binding was seen depends on the method and setting. Some results given as binding are weak or reduced against the parent protein; the word gives no strength. For some assays here: Where a sequence is shown, tags or fusion partners need not be part of it.

The target in the first assay is T1, Spindly^250–605 (human). Nature of the assay: SEC; Spindly N-terminal and C-terminal fragments mixed, 10 µM each; 4°C, Spindly buffer; fractions on SDS-PAGE; both purified. (In general: In gel filtration, larger molecules generally elute earlier.)
As to B1, the binding entry is “no binding (tested: 10 µM each)”.

Another assay concerns the target T2, Spindly^250–275_307–605 (human). Described as above.
In the case of B2, the binding result is “no binding (tested: 10 µM each)”.

The next assay has as its target Dynactin pointed-end (PE) capping complex (p25, p27, p62, Arp11) (UniProt Q9NZ32). Nature of the assay: SEC; PE complex 3 µM mixed with Spindly construct 8 µM (Fig. 3 F: 4 µM and 10 µM), at least 1 h on ice; Superdex 200 5/150 (named in the legend of Fig. 5); 4°C, Spindly buffer (50 mM Hepes pH 8.0, 250 mM NaCl, 2 mM TCEP); fractions on SDS-PAGE; both purified.
Consider B3, for which the binding entry is on record as “no binding (tested: Spindly construct 8 µM, PE 3 µM)”.

Consider B4, for which the binding result is listed as “no binding (tested: Spindly construct 8 µM, PE 3 µM)”.

On to B5, for which the binding result is “no binding (tested: Spindly construct 8 µM, PE 3 µM)”. Same read-out and setting: in the case of B6 it was “binds”. Regarding B7, the binding result is “no binding (tested: Spindly construct 8 µM, PE 3 µM)”. Still for that read-out and setting: in the case of B8 it was “no binding (tested: Spindly construct 8 µM, PE 3 µM)”; in that of B9, “no binding (tested: Spindly construct 8 µM, PE 3 µM)”; in that of B10, “no binding (tested: Spindly construct 8 µM, PE 3 µM)”. On the same count and under the same terms, in the case of B2 it was “no binding (tested: Spindly construct 8 µM, PE 3 µM)”.

The values are drawn from PMC9481740.
